Some of the results follow.
What follows are sequences tested against T1, OsSMF1 (Oryza sativa, UniProt Q6ZLB0 1-436) (assay: protein-binding microarray (RPBM); PBS, 2% BSA, 51.3 ng/ul salmon testes DNA, 50 uM zinc acetate, 200 nM TF, 25 C, 1 h; high values mean tight binding). Conditions: protein: recombinant; tags: N-terminal polyhistidine and DsRed monomer fusion (pET32a); chain copies: 2; label: CyDye5-dUTP incorporated in the synthesized complementary strand; 3' TTTTT single-stranded linker to array surface; dsDNA, one strand shown.
T1 sequence: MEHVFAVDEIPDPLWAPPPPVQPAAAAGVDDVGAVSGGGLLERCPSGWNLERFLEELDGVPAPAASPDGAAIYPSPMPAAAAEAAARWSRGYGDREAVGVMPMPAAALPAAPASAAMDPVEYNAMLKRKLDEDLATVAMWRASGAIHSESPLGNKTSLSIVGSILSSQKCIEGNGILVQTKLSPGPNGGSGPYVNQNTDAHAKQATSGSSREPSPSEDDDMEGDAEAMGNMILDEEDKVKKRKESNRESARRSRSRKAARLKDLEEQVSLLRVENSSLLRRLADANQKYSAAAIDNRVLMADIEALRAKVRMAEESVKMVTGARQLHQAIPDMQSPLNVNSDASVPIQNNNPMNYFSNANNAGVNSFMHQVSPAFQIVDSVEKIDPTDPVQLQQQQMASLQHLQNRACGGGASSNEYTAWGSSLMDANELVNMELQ
Procedure, shortened: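 Per-feature fluorescence intensity (arbitrary units), read on an Axon 4000B scanner, is the binding signal. Transcription factors carrying an N-terminal polyhistidine tag and DsRed fusion were expressed in E. coli BL21-CodonPlus and purified on Ni–NTA. A custom Agilent array, made double-stranded by primer extension with Cy5-dUTP and blocked with 2% BSA, was incubated with 200 nM protein in PBS, 2% BSA, salmon testes DNA and 50 µM zinc acetate at 25 °C for 1 h and then washed.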

Sequence	binding signal
CGCTGACGCGACGCGCTCTCCTCCGGCGAGGTCTCTGACTCGGAGTCACCTAGTGCAG	4080 fluorescence intensity (a.u.)
CCACCACGCTTTCCCCGCGCGATGACTCCGCCGCCGCGCCCGGAGTCACCTAGTGCAG	5400 fluorescence intensity (a.u.)
ATAATCCATATTGTTTATTCATCAGCTTGATCACACATACCGGAGTCACCTAGTGCAG	18800 fluorescence intensity (a.u.)
GCGCGGCCAACGTGCGGAACGGCAGTGACGCACGCGGGGACGGAGTCACCTAGTGCAG	3620 fluorescence intensity (a.u.)
CAAATGAACAATCTGATCGAGATGACGACATCTGATCTAGCGGAGTCACCTAGTGCAG	4690 fluorescence intensity (a.u.)
GTCACAGCCTGACCCCTGATAAGTTAAAGTGCAATAGTCCCGGAGTCACCTAGTGCAG	3940 fluorescence intensity (a.u.)
TGACTGGTGAGACCTATACTGACGTGGTGTCCAAAACCAGCGGAGTCACCTAGTGCAG	5160 fluorescence intensity (a.u.)
ACATGATTATATGATGCACTATTGTGACACAATGATGAGTCGGAGTCACCTAGTGCAG	4620 fluorescence intensity (a.u.)
TATATTGTAATGGAGAACATAACACGTATTAATTAATTAGCGGAGTCACCTAGTGCAG	3720 fluorescence intensity (a.u.)
ATGGTGTTGATTTGTAGTATTCAATAAATCGTACTCCCTTCGGAGTCACCTAGTGCAG	5490 fluorescence intensity (a.u.)
GACGGTGAGGCCATATATCTTTCCGGTGACCACATCAGCTCGGAGTCACCTAGTGCAG	4720 fluorescence intensity (a.u.)
TCTACCGTCACGTGGACTGCTGCGTGGCGAGTGGAGGCCGCGGAGTCACCTAGTGCAG	4220 fluorescence intensity (a.u.)
AACAATAGCCTCGGTCGAGGTGAGGTGGAAGAAGCAAAGCCGGAGTCACCTAGTGCAG	4430 fluorescence intensity (a.u.)
GAGTCAGCTTGTCAACCAGGTCAACAATGCCACGTCGGAACGGAGTCACCTAGTGCAG	16400 fluorescence intensity (a.u.)
GTTGTGTTGTGATGGATGACTTAATGGAAGTACTTCCGCACGGAGTCACCTAGTGCAG	4080 fluorescence intensity (a.u.)
CCCGGCCTCCACGTCCCCATATGCTGCGTCGGAGACTGTTCGGAGTCACCTAGTGCAG	11300 fluorescence intensity (a.u.)
TTTAATACTCCATACATGTGTCCAATCATTCGATGTGATACGGAGTCACCTAGTGCAG	3220 fluorescence intensity (a.u.)
AGACGTCCTGTAGCAGATTTTACCTCTTCTATAATGGTTGCGGAGTCACCTAGTGCAG	9870 fluorescence intensity (a.u.)
AGAGAGAGAGAGAGAGAGATCGTCTTCAATCGCGTGGCACCGGAGTCACCTAGTGCAG	3960 fluorescence intensity (a.u.)
AGTAGCATTCGACGCCGCCGCTCGTCATCCGAAGCCGAGCCGGAGTCACCTAGTGCAG	3710 fluorescence intensity (a.u.)
GCCCGTCCTCTTCTGCAAGATCTGCATGGATGACGTGCCGCGGAGTCACCTAGTGCAG	6180 fluorescence intensity (a.u.)

Sequence	binding signal
CTGCCGCCTCCCCTCCTCCTGGCGCCACGCAAGCGAGCTCCGGAGTCACCTAGTGCAG	11500 fluorescence intensity (a.u.)
TAAAATTAGGATGACAGAGCATCCTAGGCAATAATTAAGCCGGAGTCACCTAGTGCAG	3670 fluorescence intensity (a.u.)
CTTCCAAGCACTCTAGCTTACAGCAGTACACATCATGTACCGGAGTCACCTAGTGCAG	6130 fluorescence intensity (a.u.)
ACCCAGCTCCCCTCCTATTTTAGGTGGAGCTGACACAGCCCGGAGTCACCTAGTGCAG	5940 fluorescence intensity (a.u.)
TCCCTCCACCGCAGGTCCGCAGCCCAATCCAATCAGCAGACGGAGTCACCTAGTGCAG	4010 fluorescence intensity (a.u.)
ACCGGTCAGTCGGCCACCGCCACCTTTGCGCCATACTGCCCGGAGTCACCTAGTGCAG	4050 fluorescence intensity (a.u.)
GGGAGTATCTTTGTTCTTGATGCTGACATGGAATTATCTTCGGAGTCACCTAGTGCAG	4030 fluorescence intensity (a.u.)
TAAGATATACGACGTGTTAGGTGTATCAATCATATGCCCTCGGAGTCACCTAGTGCAG	3410 fluorescence intensity (a.u.)
TACTCCTGAATATTACTGAATATTATGGGACAATTCTGTGCGGAGTCACCTAGTGCAG	3280 fluorescence intensity (a.u.)
TGAGGAGGCAGGACGCACGTTCGCGGGCATCCTGGTTGGGCGGAGTCACCTAGTGCAG	3650 fluorescence intensity (a.u.)
CTCCGCCGCCAATTCGCTCGGTCCGGCGGTTCGCTGATCCCGGAGTCACCTAGTGCAG	33200 fluorescence intensity (a.u.)
ACATCATCACGCAGGACGCAGCCATGGCATTCGCGGATCACGGAGTCACCTAGTGCAG	3370 fluorescence intensity (a.u.)
CTGAATCTCACCAGAGCAACTCCTATTGGCAGTGTCGACTCGGAGTCACCTAGTGCAG	9420 fluorescence intensity (a.u.)
ACTAAGCGCATTGATTCCCATTATATACTTCCTTTCCTAACGGAGTCACCTAGTGCAG	3570 fluorescence intensity (a.u.)
GTTTGGCAACAATTGGGGAGGGGCATAATATTAGCTCTGGCGGAGTCACCTAGTGCAG	3500 fluorescence intensity (a.u.)
GTGTGCGGCGGCAAGGATAGCTGAGGTGGCAAAGCTCGTGCGGAGTCACCTAGTGCAG	9890 fluorescence intensity (a.u.)
ATAACTCTCTTTCTGGACCCATCCCTGACCTCCAACTCCCCGGAGTCACCTAGTGCAG	3250 fluorescence intensity (a.u.)
ACTTATCCGACGTGGACTCCACGTACGACTTGGACTCCTCCGGAGTCACCTAGTGCAG	20100 fluorescence intensity (a.u.)
CGGTTGTTAACCTGGCTAATAGTGACGGGTCAATCGCACACGGAGTCACCTAGTGCAG	3490 fluorescence intensity (a.u.)
GTGTGAATTTGATTTGCGTGGAGGGTGACACCGTGTGGTACGGAGTCACCTAGTGCAG	3700 fluorescence intensity (a.u.)
GCTGTTTGACAAGCTCCCCTCGCCGCCAGGAAGGCTCCCTCGGAGTCACCTAGTGCAG	20000 fluorescence intensity (a.u.)

Look-ups from the entries so far:
For binding signal, TAAAATTAGGATGACAGAGCATCCTAGGCAATAATTAAGCCGGAGTCACCTAGTGCAG reads 3670 fluorescence intensity (a.u.)
For binding signal, TATATTGTAATGGAGAACATAACACGTATTAATTAATTAGCGGAGTCACCTAGTGCAG reads 3720 fluorescence intensity (a.u.)
For binding signal, CTGAATCTCACCAGAGCAACTCCTATTGGCAGTGTCGACTCGGAGTCACCTAGTGCAG reads 9420 fluorescence intensity (a.u.)
